Some peptides are written in HELM: one residue between dots, names in brackets for other building blocks, links after the first $.
Experiment: general procedure: Fmoc solid-phase peptide synthesis
[1] = whole synthesis, LCMS (crude), RP-HPLC or LCMS (purified), scale of the general procedure 0.05 mmol or 0.1 mmol

Question: With “PEPTIDE1{C.V.T.H.R.L.A.G.L.L.S.R.S.G.G.V.V.K.N.N.F.V.P.T.N.V.G.S.K.A.F.[am]}$$$$V2.0” as the substance, how does the step yield (purification step) read?
Answer: Its step yield is 34%.

Question: What about the “crude LC-MS purity” value [1] of the same substance?
Answer: The value was 31%.

Question: And the “final HPLC purity” value [1]?
Answer: The value was 97%.

Question: And the crude yield (whole synthesis, based on 31% purity, scale of the general procedure 0.05 mmol or 0.1 mmol)?
Answer: The crude yield was 10%.

Question: And the crude mass (whole synthesis, scale 0.05 mmol)?
Answer: Its crude mass is 49.53 mg.

From US20200353088A1 (Auckland UniServices Limited, priority 2017, published 2020)
